Results deposited as PubChem BioAssay AID602196 (INSERM, 2012).

Purpose: 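Knock-downs that protect lung cancer cells from cisplatin or sensitise them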
Cell system: human A549 lung cancer cells
Reagents: siRNA pair against human genes
Duration: 48 h transfection before cisplatin; time from cisplatin to read-out not stated
Challenge: cisplatin at a dose killing half of control-siRNA cells; exact dose and duration not given
Measured: 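Shift in cisplatin death relative to control siRNA, from -50 (all cells die) to +50 (no cells die); siRNAs harmful on their own scored 0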
Direction: two-siRNA summed score (-2 to +2): higher = both siRNAs protect from cisplatin killing; -2 means both sensitise; mean protection from cisplatin (shift in death) and protection from cisplatin (shift in death), siRNA C and protection from cisplatin (shift in death), siRNA D: higher = protection from cisplatin killing
Call rule: 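Each siRNA scores 0 if harmful alone by LDH or WST-1, otherwise +1 if it reduces and -1 if it increases cisplatin killing; a gene is active when both siRNAs agree (sum +2 or -2)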
Meaning of the calls: active = both siRNAs shift cisplatin killing the same way; inactive = no consistent shift, or siRNA harmful alone
The deposit covers about 23,000 reagents; below is an unselected part. 455 of all reagents (2%) count as active. 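Active includes both protection and sensitisation; some change values fall well beyond the stated -50 to +50 range.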 Reagent sequences are not shown. The record does not give: the amount of reagent.

gene knocked down	two-siRNA summed score (-2 to +2)	mean protection from cisplatin (shift in death) (%)	protection from cisplatin (shift in death), siRNA C (%)	protection from cisplatin (shift in death), siRNA D (%)	activity call
ADGRE1 (GeneID 2015)	-1	-6.5	-6.2	-6.9	inactive
SNRPE (GeneID 6635)	0	-1.8	0.7	-4.2	inactive
HDAC10 (GeneID 83933)	0	8.5	10.9	6.2	inactive
SNX32 (GeneID 254122)	0	1.5	-1.2	4.1	inactive
LOC440357	0	0.5	-4.4	5.4	inactive
PLEKHA3 (GeneID 65977)	0	4	0.2	7.9	inactive
CT45A5 (GeneID 441521)	0	4.8	10.8	-1.2	inactive
LOC388461	0	18.5	19.8	17.1	inactive
INPP5B (GeneID 3633)	-1	-7.4	-8.5	-6.3	inactive
KLHL15 (GeneID 80311)	0	9.9	9.2	10.6	inactive
OSTCP1 (GeneID 202459)	-2	-12.9	-15.4	-10.4	active
NGRNP3 (GeneID 402634)	0	8.7	1.9	15.6	inactive
LOC441477	1	15.9	29.4	2.5	inactive
ERG (GeneID 2078)	-1	8.2	30.5	-14.1	inactive
RPL7 (GeneID 6129)	0	31.7	26.8	36.5	inactive
FAM230B (GeneID 642633)	0	-0.9	-4.2	2.3	inactive
LAMA5 (GeneID 3911)	0	2.2	8.1	-3.8	inactive
USP37 (GeneID 57695)	0	1.2	4.2	-1.9	inactive
CHI3L2 (GeneID 1117)	0	1.6	1	2.2	inactive
RAB27A (GeneID 5873)	0	8.5	12.3	4.8	inactive
SPOUT1 (GeneID 51490)	-1	-25.6	-23.3	-27.9	inactive
ARFIP2 (GeneID 23647)	-1	-23.4	-36.1	-10.6	inactive

The list goes on; the last 3 above are carried over.
gene knocked down	two-siRNA summed score (-2 to +2)	mean protection from cisplatin (shift in death) (%)	protection from cisplatin (shift in death), siRNA C (%)	protection from cisplatin (shift in death), siRNA D (%)	activity call
RAB27A (GeneID 5873)	0	8.5	12.3	4.8	inactive
SPOUT1 (GeneID 51490)	-1	-25.6	-23.3	-27.9	inactive
ARFIP2 (GeneID 23647)	-1	-23.4	-36.1	-10.6	inactive
DPH1 (GeneID 1801)	0	14.2	25.8	2.6	inactive
GUK1 (GeneID 2987)	-1	-1.8	5.7	-9.3	inactive
TAPBP (GeneID 6892)	-1	-11.3	-6.8	-15.7	inactive
MAK16 (GeneID 84549)	0	2.3	-0.8	5.4	inactive
LOC139189	1	36.6	37.6	35.7	inactive
ZNF529 (GeneID 57711)	0	9.4	12.7	6.1	inactive
CDH16 (GeneID 1014)	1	16.9	15.8	18.1	inactive
LOC442671	0	16.4	16.7	16.1	inactive
PITX1 (GeneID 5307)	0	6.6	3.2	10	inactive
LOC440275	0	11.7	9.5	14	inactive
ACTE1P (GeneID 399923)	-1	8.1	-16.8	33	inactive
CT75 (GeneID 440934)	1	19.1	20.5	17.6	inactive
FAM90A3 (GeneID 389611)	0	26.8	35.7	17.9	inactive
PREP (GeneID 5550)	0	1.7	-1.7	5.1	inactive
THSD4 (GeneID 79875)	-1	-16.2	-7.2	-25.2	inactive
OPN1MW (GeneID 2652)	1	11.1	2.3	19.8	inactive
LOC391014	1	7.6	10.4	4.7	inactive
